Some of the results follow. Only hits are listed; about a third recur on repeated control peptides.

Chains of the proteins cited; added tags and fusions are not shown.
PCBP2, Q15366, UniProt Q15366, whole entry: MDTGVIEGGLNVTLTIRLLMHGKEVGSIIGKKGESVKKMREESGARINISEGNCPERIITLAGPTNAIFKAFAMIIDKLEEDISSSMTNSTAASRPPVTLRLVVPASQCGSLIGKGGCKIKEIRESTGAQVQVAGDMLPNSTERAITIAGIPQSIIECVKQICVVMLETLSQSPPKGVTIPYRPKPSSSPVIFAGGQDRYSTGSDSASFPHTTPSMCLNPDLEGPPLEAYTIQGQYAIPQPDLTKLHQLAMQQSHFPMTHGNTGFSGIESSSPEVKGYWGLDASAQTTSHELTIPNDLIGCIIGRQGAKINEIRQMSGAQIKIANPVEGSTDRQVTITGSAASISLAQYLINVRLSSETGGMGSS
SRSF9, Q13242, UniProt Q13242, whole entry: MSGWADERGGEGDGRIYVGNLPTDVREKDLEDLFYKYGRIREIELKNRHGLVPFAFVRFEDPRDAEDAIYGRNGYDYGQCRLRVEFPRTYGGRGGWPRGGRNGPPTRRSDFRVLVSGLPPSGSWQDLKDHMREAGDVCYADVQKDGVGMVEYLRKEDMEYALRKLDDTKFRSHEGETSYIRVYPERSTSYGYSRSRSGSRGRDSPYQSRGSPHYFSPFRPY
TUBB8, Q3ZCM7, UniProt Q3ZCM7, whole entry: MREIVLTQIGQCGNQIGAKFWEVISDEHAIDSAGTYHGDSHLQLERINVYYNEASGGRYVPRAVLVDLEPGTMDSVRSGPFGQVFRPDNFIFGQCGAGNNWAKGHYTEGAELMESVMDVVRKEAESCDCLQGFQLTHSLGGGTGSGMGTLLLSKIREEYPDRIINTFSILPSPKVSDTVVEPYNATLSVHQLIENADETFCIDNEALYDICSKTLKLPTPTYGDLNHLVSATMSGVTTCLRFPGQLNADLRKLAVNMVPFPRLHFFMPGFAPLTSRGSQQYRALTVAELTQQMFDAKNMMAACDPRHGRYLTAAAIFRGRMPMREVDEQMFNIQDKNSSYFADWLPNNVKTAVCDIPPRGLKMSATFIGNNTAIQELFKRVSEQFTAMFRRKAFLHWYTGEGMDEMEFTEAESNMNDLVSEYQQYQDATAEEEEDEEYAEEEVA

The values below come from the supplement of paper PMC10032668.

Common to all, as to assay: PRISMA enrichment of interactor (LFQ) in peptide spot vs all other peptide spots (log2 fold change); higher = stronger / more specific binding of the interactor to the peptide
The target of experiment [1] is AK4, P27144. The procedure: (§1)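 PRISMA: 221 full-length sORF-encoded peptides (3-15 aa), plus SOS1/GLUT1 control peptides, were spot-synthesized on cellulose membranes in triplicate. Membranes were incubated with HEK293T lysate, and bound proteins were identified by LC-MS/MS with LFQ. Enrichment is the log2 fold change versus all other peptide spots; only significant interactors are listed (cutoff c=6, x0=2.8).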

Experiment [2] concerns the target CCAR1, Q8IX12. The procedure:
as §1

The target of experiment [3] is CLPP, Q16740. As to the method:
as §1

Experiment [4] concerns the target CLPX, O76031. The procedure: as §1
The target in experiment [5] is DUSP3, P51452. As to the method: as §1
Experiment [6] concerns the target LAMTOR5, O43504. As to the method:
as §1

Experiment [7] deals with NAMPT, P43490. The procedure: as §1
Experiment [8] deals with NTPCR, Q9BSD7. The procedure:
as §1

Experiment [9] has as its target NUBP2, Q9Y5Y2. The procedure: as §1
Experiment [10] deals with NUP153, P49790. As to the method:
as §1

For experiment [11], the target named is NUP54, Q7Z3B4. The procedure: as §1
The target of experiment [12] is ORC4, O43929. As to the method: as §1
Experiment [13] concerns the target PCBP2, Q15366. The procedure:
as §1

Experiment [14] addresses PTPMT1, Q8WUK0. The procedure:
as §1

Experiment [15] addresses TFB1M, Q8WVM0. The procedure:
as §1

The target of experiment [16] is UBAP2L, Q14157. The procedure:
as §1

The target in experiment [17] is UFD1, Q92890. The procedure:
as §1

The target of experiment [18] is UMPS, P11172. The procedure: as §1
The target in experiment [19] is UTP15, Q8TED0. The procedure:
as §1

For experiment [20], the target named is AK6, Q9Y3D8. The procedure:
as §1

Experiment [21] concerns the target ANP32A, P39687. As to the method: as §1
Experiment [22] has as its target ANP32E, Q9BTT0. As to the method:
as §1

Experiment [23] addresses COLGALT1, Q8NBJ5. The procedure:
as §1

Experiment [24] deals with DAP3, P51398. The procedure:
as §1

The target in experiment [25] is DEF6, Q9H4E7. As to the method: as §1
Experiment [26] has as its target HASPIN, Q8TF76. As to the method:
as §1

Experiment [27] addresses HTATSF1, O43719. The procedure:
as §1

Experiment [28] deals with LARP1, Q6PKG0. As to the method: as §1
Experiment [29] addresses MAGEB2, O15479. The procedure:
as §1

In experiment [30] the target is MRPS35, P82673. The procedure:
as §1

The target in experiment [31] is MRPS9, P82933. As to the method:
as §1

Experiment [32] addresses NDUFAB1, O14561. As to the method:
as §1

The target in experiment [33] is NOP58, Q9Y2X3. The procedure: as §1
Experiment [34] has as its target PAF1, Q8N7H5. As to the method: as §1
Experiment [35] has as its target PLAA, Q9Y263. As to the method: as §1
The target in experiment [36] is RPLP1, P05386. As to the method: as §1
Experiment [37] deals with SRSF1, Q07955. As to the method:
as §1

In experiment [38] the target is SRSF9, Q13242. As to the method:
as §1

For experiment [39], the target named is TAF8, Q7Z7C8. As to the method:
as §1

Experiment [40] has as its target TRAF2, Q12933. As to the method: as §1
Experiment [41] addresses TUBB8, Q3ZCM7. The procedure: as §1

B1: FBLN5 (peptide)
chain: MKCSFLTFLLQLV
As for B1, the “PRISMA enrichment of interactor (log2)” value in experiment [1] worked out at 5.77; in [2] it was 4.77; in [3], 5.23; in [4] it was 5.61; in [5], 4.61; in [6], 4.68. Also, the “PRISMA enrichment of interactor (log2)” value in experiment [7] stood at 6.32; in experiment [8], 7.07; in experiment [9], 5.21; in [10] it was 6.01; in experiment [11] it was 4.52; in [12] it was 4.62. The “PRISMA enrichment of interactor (log2)” value in experiment [13] stood at 5.91; in [14], 4.85; in experiment [15] it was 6.33; in [16] it was 5.55; in experiment [17], 3.91; in experiment [18], 5.91. The “PRISMA enrichment of interactor (log2)” value in experiment [19] came out at 8.23.

B2: MFN2 (peptide)
chain: MAAARPGR
Turning to B2, the “PRISMA enrichment of interactor (log2)” value in [20] worked out at 5.46; in experiment [21], 5.76; in [22], 7.04; in experiment [23] it was 9.23; in [24], 5.85; in experiment [25], 6.66. Further, the “PRISMA enrichment of interactor (log2)” value stood at 4.06 in experiment [26]; 5.87 in experiment [27]; 5.78 in [28]; 5.24 in experiment [29]; 5.29 in experiment [30]; 5.11 in experiment [31]. In addition, the “PRISMA enrichment of interactor (log2)” value in experiment [32] was 5.16; in experiment [33], 7.04; in experiment [34] it was 5.37; in experiment [35], 9.72; in [36] it was 6.59; in experiment [37], 5.64. In addition, the “PRISMA enrichment of interactor (log2)” value in experiment [38] turned out to be 6.35; in experiment [39] it was 4.61; in experiment [40] it was 6.34; in experiment [41], 5.55.
